Measurements taken from article doi:10.1101/2024.07.16.603715.

The chains behind the UniProt entries cited, without tags or fusion partners. Where a name states a change or a piece, a line headed by the entry shows the natural chain unless it says otherwise. Residues count along the entry.
UniProt B0V2N1, residues 30-1907: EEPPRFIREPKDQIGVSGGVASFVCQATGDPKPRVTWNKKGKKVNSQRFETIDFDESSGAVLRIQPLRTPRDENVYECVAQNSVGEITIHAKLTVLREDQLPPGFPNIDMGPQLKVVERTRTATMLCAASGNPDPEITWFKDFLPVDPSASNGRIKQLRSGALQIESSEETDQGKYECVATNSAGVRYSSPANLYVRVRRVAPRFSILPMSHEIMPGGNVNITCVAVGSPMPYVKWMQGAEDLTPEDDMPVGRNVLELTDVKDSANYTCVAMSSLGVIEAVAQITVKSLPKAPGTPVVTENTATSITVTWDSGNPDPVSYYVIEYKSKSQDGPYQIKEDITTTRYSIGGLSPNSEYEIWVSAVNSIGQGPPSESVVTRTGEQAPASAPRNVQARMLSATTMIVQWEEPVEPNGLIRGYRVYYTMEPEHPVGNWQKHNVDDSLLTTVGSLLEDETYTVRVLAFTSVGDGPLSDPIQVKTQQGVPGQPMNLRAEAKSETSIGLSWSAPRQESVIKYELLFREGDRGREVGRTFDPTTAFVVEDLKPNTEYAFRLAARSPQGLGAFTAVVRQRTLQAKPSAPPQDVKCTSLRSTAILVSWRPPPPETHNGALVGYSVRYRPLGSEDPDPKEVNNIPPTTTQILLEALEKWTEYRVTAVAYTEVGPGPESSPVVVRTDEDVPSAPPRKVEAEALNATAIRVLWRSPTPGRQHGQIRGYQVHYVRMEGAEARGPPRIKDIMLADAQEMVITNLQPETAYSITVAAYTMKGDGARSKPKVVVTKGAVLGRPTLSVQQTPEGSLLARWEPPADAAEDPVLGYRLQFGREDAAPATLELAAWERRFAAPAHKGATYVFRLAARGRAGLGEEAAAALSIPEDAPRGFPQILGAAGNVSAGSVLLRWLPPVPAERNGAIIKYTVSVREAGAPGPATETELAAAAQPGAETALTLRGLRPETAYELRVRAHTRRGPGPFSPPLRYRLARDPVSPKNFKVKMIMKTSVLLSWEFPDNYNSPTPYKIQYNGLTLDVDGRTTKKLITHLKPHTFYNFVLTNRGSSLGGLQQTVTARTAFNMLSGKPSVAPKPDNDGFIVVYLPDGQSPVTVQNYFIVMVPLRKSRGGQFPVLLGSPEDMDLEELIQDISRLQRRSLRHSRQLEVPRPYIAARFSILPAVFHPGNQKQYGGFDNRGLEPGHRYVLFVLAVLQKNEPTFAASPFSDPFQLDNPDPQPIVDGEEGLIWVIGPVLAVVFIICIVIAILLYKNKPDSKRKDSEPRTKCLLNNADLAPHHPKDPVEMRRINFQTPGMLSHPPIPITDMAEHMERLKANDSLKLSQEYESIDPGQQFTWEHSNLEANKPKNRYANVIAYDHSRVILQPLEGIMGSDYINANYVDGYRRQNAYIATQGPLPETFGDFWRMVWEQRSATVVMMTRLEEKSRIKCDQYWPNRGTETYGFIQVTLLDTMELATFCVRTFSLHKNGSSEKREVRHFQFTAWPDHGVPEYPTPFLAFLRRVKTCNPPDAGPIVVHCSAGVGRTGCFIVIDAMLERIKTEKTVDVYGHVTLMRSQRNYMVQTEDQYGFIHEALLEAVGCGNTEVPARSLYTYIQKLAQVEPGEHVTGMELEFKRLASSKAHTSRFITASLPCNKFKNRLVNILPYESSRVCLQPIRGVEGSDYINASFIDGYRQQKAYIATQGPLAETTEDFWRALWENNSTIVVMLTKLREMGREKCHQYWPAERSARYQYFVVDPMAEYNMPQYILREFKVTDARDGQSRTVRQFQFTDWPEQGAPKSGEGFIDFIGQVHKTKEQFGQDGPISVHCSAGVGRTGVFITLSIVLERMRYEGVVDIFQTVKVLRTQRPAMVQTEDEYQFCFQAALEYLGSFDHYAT
UniProt P61215: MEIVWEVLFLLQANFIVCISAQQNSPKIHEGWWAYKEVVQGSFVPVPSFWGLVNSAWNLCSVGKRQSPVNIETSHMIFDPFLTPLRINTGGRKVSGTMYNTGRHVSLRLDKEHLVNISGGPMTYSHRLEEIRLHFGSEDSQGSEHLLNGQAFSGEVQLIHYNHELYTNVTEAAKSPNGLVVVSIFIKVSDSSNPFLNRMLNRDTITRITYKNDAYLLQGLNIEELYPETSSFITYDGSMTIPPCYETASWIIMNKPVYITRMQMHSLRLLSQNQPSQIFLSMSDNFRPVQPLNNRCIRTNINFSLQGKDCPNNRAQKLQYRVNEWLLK

Legend:
[1] = target: receptor protein tyrosine phosphatase S (PTPRS) (mouse (endogenous in adult mouse brain)) (UniProt B0V2N1); assay: affinity purification with mass spectrometry
[2] = target: carbonic anhydrase-related protein 10 (CAH10) (mouse (endogenous in adult mouse brain)) (UniProt P61215); assay: affinity purification with mass spectrometry

B1: leucine-rich repeat transmembrane neuronal protein 1 (LRRT1) (protein, UniProt Q8K377 35-522)
chain: APSGCPGQCRCEGRLLYCEALNLTEAPHNLSGLLGLSLRYNSLSELRAGQFTGLMQLTWLYLDHNHICSVQGDAFQKLRRVKELTLSSNQITELANTTFRPMPNLRSVDLSYNKLQALAPDLFHGLRKLTTLHMRANAIQFVPVRIFQDCRSLKFLDIGYNQLKSLARNSFAGLFKLTELHLEHNDLIKVNFAHFPRLISLHSLCLRRNKVAIVVSSLDWVWNLEKMDLSGNEIEYMEPHVFETVPYLQTLQLDSNRLTYIEPRILNSWKSLTSITLAGNLWDCGRNVCALASWLSNFQGRYDANLQCASPEYAQGEDVLDAVYAFHLCEDGAEPTSGHLLSVAVTNRSDLTPPESSATTLVDGGEGHDGTFEPITVALPGGEHAENAVQIHKVVTGTMALIFSFLIVVLVLYVSWKCFPASLRQLRQCFVTQRRKQKQKQTMHQMAAMSAQEYYVDYKPNHIEGALVIINEYGSCTCHQQPARECEV
- binding [1]: binds
- binding [2]: binds

B2: SHSA7 (protein, UniProt Q8C3Q5 23-558)
chain: RPSNDTSSVAPGPLPALLAHLRRLTGALAGGGSAAGTSANATKTSPASGTGAAARAPPPAELCHGYYDVMGQYDATFNCSTGSYRFCCGTCHYRFCCEHRHMRLAQASCSNYDTPRWATTPPPLAGGAGGAGGAGGGPGPGQAGWLEGGRAGGAGGRGGEGPGGSTAYVVCGVISFALAVGVGAKVAFSKASRAPRAHREINVPRALVDILRHQAGPATRPDRARSSSLTPGLGGPDSMAPRTPKNLYNTMKPSNLDNLHYNVNSPKHHAATLDWRAMPPPSPSLHYSTLSCSRSFHNLSHLPPSYEAAVKSELNRYSSLKRLAEKDLDEAYLKRRQLEMPRGTLPLHALRRPGTGGGYRMDGWGGPEELGLAPAPNPRRVMSQEHLLGDGSRASRYEFTLPRARLVSQEHLLLSSPEALRQSREHLLSPPRSPALPPDPTTRASLAASHSNLLLGPGGPPTPLHGLPPSGLHAHHHHALHGSPQPAWMSDAGGGGGTLARRPPFQRQGTLEQLQFIPGHHLPQHLRTASKNEVTV
- binding [1]: binds
- binding [2]: binds

No constants are given. Whether binding was seen depends on the method and setting. In cells and extracts the contact can be indirect. Here binding means that the protein was enriched with, or labelled near, the bait; the list need not be complete.
